In publication PMC5996148 one finds binding signal data, which are given here for 1 sequence.

Test systems include C2orf18 (human); C2orf33 (human); C2orf43 (human); C3orf45 (human); C4BPB (human); C4orf18 (human); C4orf19 (human); C4orf33 (human); C4orf35 (human); C5AR1 (human); C5orf3 (human); C6orf106 (human); C6orf108 (human); C6orf118 (human); C6orf145 (human); C6orf206 (human); C6orf48 (human); C6orf49 (human); C6orf89 (human).
What all share (assay): protein microarray (ProtoArray v5.0), streptavidin-Alexa Fluor 647
Common to all, as to settings: 3'-biotin; 20 mM Tris (pH 7.5), 5 mM MgCl2, 100 mM KCl, 0.1% Tween-20, A/T-rich and random oligonucleotide blockers; temperature not stated; high values mean tight binding

For experiment [1], the system named is C4b-binding protein beta chain (human).

The other results are listed elsewhere or left out.

For the sequence “GGTGACAGGGGTATGGGGAGGGG [G4-2 biotinylated (Ct1)]”, the binding signal is -0.38 z-score with C2orf18 (human); -0.393 z-score in the experiment on C2orf33 (human); -0.391 z-score in the experiment on C2orf43 (human); -0.37 z-score in the experiment on C3orf45 (human); -0.37 z-score in the experiment with C4BPB (human); -0.376 z-score in experiment [1]. The binding signal with C4orf18 (human) is -0.385 z-score; in the experiment with C4orf19 (human), -0.374 z-score; with C4orf33 (human), -0.375 z-score; in the experiment with C4orf35 (human), -0.388 z-score; in the experiment with C5AR1 (human), -0.378 z-score; in the experiment with C5orf3 (human), -0.396 z-score. Moreover, the binding signal in the experiment on C6orf106 (human) was -0.373 z-score; with C6orf108 (human), -0.362 z-score; in the experiment on C6orf118 (human) it was -0.383 z-score; with C6orf145 (human), -0.378 z-score; in the experiment on C6orf206 (human) it was -0.393 z-score; with C6orf48 (human), -0.397 z-score. Moreover, the values for the binding signal in the experiment with C6orf49 (human) and in the experiment on C6orf89 (human) were -0.4 z-score and -0.379 z-score, respectively.
